Measurements taken from publication PMC3377668, “Detection of Crosslinks within and between Proteins by LC-MALDI-TOFTOF and the Software FINDX to Reduce the MSMS-Data to Acquire for Validation” (PLoS ONE, 2012).
Results are given in words; binding and its absence hold for the method and conditions named. In cells and extracts the contact can be indirect. Some binding calls cover weakened binding; strength is not graded here.

Biological target: T1, magnesium chelatase subunit H (BchH) from Rhodobacter capsulatus (Rhodobacter capsulatus) (UniProt P26162)
T1 sequence: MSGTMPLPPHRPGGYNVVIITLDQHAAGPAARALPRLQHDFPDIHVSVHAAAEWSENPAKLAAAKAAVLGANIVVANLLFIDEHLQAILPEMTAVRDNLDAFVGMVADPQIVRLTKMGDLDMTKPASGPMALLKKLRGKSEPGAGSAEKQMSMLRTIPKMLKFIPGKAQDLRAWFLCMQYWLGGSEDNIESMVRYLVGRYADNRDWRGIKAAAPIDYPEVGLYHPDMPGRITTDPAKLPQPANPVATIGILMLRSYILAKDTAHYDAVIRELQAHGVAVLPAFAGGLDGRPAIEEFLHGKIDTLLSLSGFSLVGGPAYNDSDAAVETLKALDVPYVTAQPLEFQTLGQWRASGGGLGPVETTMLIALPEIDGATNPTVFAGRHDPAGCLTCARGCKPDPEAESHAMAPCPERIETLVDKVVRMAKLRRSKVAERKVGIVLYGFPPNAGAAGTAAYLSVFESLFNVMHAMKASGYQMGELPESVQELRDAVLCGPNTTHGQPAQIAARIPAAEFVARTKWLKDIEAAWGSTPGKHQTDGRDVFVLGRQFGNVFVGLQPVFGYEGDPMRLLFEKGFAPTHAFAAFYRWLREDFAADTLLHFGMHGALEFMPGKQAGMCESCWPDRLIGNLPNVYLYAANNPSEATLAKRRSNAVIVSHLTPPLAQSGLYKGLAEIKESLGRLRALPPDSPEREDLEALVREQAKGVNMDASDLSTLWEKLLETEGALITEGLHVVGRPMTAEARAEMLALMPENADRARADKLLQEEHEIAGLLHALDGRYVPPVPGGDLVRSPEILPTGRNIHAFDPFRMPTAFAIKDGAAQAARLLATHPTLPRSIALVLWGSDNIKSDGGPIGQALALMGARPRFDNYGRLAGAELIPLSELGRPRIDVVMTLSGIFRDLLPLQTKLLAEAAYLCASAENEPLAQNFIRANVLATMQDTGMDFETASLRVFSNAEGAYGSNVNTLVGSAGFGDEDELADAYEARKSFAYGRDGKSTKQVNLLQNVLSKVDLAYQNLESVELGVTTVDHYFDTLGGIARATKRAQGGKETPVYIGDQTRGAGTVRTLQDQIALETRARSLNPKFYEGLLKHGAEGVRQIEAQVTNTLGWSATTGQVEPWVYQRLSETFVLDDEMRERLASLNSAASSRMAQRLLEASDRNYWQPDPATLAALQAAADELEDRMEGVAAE
Assay: cross-linking; magnesium chelatase from Rhodobacter capsulatus crosslinked; crosslinks detected by the FINDX workflow; details not given (Peterson Wulff et al, in preparation)

binding: binds
B1: magnesium chelatase subunit D (BchD) from Rhodobacter capsulatus (protein, UniProt P26175 1-561)
chain: MDHERLKSALAVLTVDPAAVGGLWLRSRAGPIRLAFTDTLAKLPFPMALRRLPPNVDDGALYGGLDVAETLHSGKPVLKGGLLDRPSVFILPMAERCTAKLGARLAQALDLRQHALIALDEAAEPDEALPHAVADRLGLFVDLSEVRSIDGPGLLPETAQIERARELLPQVQMPAERVSEIVEGCRQLGISSLRAPMLALTAARILTALSGRTRVEAEDVLHAAELTLAHRALPLQEAPPPPPPPPEPPEPNEGENQQDEQDQIDPLDGIPPEIVVEAVRAMLPDNILQTLNMGSRLRAASGGQGAGQEQIGNRRGRPLPSRKGKLEDDAKIDLVATLRSAAPWQGLRRRQAPAGTERVLLVESSDIHIKRRKEMSDRVLIFAVDASGSAAVARLSEAKGAVELLLGRAYAARDHVSLITFRGTAAQVLLQPSRSLTQTKRQLQGLPGGGGTPLASGMEMAMVTAKQARSRGMTPTIALLTDGRGNIALDGTANRELAGEQATKVARAIRASGMPAVIIDTAMRPNPALVDLARTMDAHYIALPRATAHKMADVLGAALEA
